Chains of the proteins cited; added tags and fusions are not shown. Lines headed by an entry give the natural chain unless they say otherwise; changes in a name come on top.
UniProt Q16740: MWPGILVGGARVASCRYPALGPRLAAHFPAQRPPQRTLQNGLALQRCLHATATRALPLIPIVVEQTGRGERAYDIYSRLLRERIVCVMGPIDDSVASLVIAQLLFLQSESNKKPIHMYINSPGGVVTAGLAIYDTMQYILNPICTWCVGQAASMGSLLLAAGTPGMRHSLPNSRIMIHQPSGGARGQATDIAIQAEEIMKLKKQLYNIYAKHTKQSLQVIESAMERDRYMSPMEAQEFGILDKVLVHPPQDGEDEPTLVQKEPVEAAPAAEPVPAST
UniProt P07339: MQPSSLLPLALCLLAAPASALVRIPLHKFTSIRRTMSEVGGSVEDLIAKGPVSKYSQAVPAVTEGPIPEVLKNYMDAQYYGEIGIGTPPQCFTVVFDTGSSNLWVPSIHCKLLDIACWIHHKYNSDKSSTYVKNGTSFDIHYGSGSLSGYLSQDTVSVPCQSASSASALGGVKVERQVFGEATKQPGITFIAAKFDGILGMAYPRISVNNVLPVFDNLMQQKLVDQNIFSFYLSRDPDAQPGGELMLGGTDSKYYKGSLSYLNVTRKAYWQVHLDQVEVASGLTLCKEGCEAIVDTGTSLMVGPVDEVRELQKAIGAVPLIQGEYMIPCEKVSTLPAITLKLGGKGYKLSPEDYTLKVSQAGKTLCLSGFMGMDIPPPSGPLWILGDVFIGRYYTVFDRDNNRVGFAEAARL
UniProt P04406: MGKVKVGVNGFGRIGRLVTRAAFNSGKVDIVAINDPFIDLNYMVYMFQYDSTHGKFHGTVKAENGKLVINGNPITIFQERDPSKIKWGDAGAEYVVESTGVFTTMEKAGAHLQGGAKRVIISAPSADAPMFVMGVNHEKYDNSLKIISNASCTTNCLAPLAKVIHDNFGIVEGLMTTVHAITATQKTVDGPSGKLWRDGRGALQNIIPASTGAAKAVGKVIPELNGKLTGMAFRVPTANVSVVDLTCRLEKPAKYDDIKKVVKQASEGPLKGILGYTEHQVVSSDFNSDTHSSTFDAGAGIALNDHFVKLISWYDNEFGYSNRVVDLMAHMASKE

According to article PMC7931231:

T1: Flag-NEK5 wild-type (NEK5^WT) (human) (UniProt Q6P3R8)
T1 sequence: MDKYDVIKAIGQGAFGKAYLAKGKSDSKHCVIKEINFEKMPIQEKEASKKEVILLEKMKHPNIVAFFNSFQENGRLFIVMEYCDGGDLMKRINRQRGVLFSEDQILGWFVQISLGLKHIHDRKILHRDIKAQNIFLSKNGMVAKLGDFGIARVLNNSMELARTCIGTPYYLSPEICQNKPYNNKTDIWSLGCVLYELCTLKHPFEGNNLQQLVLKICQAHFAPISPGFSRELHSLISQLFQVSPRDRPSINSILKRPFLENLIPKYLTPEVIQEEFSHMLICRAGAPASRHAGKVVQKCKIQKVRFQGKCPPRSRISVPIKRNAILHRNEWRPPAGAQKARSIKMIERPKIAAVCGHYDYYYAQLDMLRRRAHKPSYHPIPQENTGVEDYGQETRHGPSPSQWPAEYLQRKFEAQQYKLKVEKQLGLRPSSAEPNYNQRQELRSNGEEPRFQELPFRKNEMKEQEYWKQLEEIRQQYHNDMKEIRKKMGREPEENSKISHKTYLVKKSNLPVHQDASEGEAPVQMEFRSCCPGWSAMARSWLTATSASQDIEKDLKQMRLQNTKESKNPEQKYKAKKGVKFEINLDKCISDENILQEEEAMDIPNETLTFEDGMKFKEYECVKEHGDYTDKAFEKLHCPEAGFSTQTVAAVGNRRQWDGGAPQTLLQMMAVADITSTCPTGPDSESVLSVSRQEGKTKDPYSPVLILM

B1: LonP1 (endogenous, Flp-In T-REx 293T cells) (protein, UniProt P36776 68-959)
chain: FWEASSRGGGAFSGGEDASEGGAEEGAGGAGGSAGAGEGPVITALTPMTIPDVFPHLPLIAITRNPVFPRFIKIIEVKNKKLVELLRRKVRLAQPYVGVFLKRDDSNESDVVESLDEIYHTGTFAQIHEMQDLGDKLRMIVMGHRRVHISRQLEVEPEEPEAENKHKPRRKSKRGKKEAEDELSARHPAELAMEPTPELPAEVLMVEVENVVHEDFQVTEEVKALTAEIVKTIRDIIALNPLYRESVLQMMQAGQRVVDNPIYLSDMGAALTGAESHELQDVLEETNIPKRLYKALSLLKKEFELSKLQQRLGREVEEKIKQTHRKYLLQEQLKIIKKELGLEKDDKDAIEEKFRERLKELVVPKHVMDVVDEELSKLGLLDNHSSEFNVTRNYLDWLTSIPWGKYSNENLDLARAQAVLEEDHYGMEDVKKRILEFIAVSQLRGSTQGKILCFYGPPGVGKTSIARSIARALNREYFRFSVGGMTDVAEIKGHRRTYVGAMPGKIIQCLKKTKTENPLILIDEVDKIGRGYQGDPSSALLELLDPEQNANFLDHYLDVPVDLSKVLFICTANVTDTIPEPLRDRMEMINVSGYVAQEKLAIAERYLVPQARALCGLDESKAKLSSDVLTLLIKQYCRESGVRNLQKQVEKVLRKSAYKIVSGEAESVEVTPENLQDFVGKPVFTVERMYDVTPPGVVMGLAWTAMGGSTLFVETSLRRPQDKDAKGDKDGSLEVTGQLGEVMKESARIAYTFARAFLMQHAPANDYLVTSHIHLHVPEGATPKDGPSAGCTIVTALLSLAMGRPVRQNLAMTGEVSLTGKILPVGGIKEKTIAAKRAGVTCIVLPAENKKDFYDLAAFITEGLEVHFVEHYREIFDIAFPDEQAEALAVER
B2: GPD1L (protein, UniProt Q8N335 1-351)
chain: MAAAPLKVCIVGSGNWGSAVAKIIGNNVKKLQKFASTVKMWVFEETVNGRKLTDIINNDHENVKYLPGHKLPENVVAMSNLSEAVQDADLLVFVIPHQFIHRICDEITGRVPKKALGITLIKGIDEGPEGLKLISDIIREKMGIDISVLMGANIANEVAAEKFCETTIGSKVMENGLLFKELLQTPNFRITVVDDADTVELCGALKNIVAVGAGFCDGLRCGDNTKAAVIRLGLMEMIAFARIFCKGQVSTATFLESCGVADLITTCYGGRNRRVAEAFARTGKTIEELEKEMLNGQKLQGPQTSAEVYRILKQKGLLDKFPLFTAVYQICYESRPVQEMLSCLQSHPEHT
B3: SDHB (protein, UniProt P21912 29-280)
chain: AQTAAATAPRIKKFAIYRWDPDKAGDKPHMQTYEVDLNKCGPMVLDALIKIKNEVDSTLTFRRSCREGICGSCAMNINGGNTLACTRRIDTNLNKVSKIYPLPHMYVIKDLVPDLSNFYAQYKSIEPYLKKKDESQEGKQQYLQSIEEREKLDGLYECILCACCSTSCPSYWWNGDKYLGPAVLMQAYRWMIDSRDDFTEERLAKLQDPFSLYRCHTIMNCTRTCPKGLNPGKAIAEIKKMMATYKEKKASV

Each molecule was assayed against T1, Flag-NEK5 wild-type (NEK5^WT) (human) (assay: affinity purification with mass spectrometry; anti-FLAG IP of Flag-NEK5^WT from crude mitochondria of Flp-In T-REx 293T cells, LC-MS/MS; hits kept if in at least three replicates of FLAG-NEK5 and in none or one replicate of control-FLAG IP).

binding, binds:
CLPP (from UniProt Q16740 57-277), CTSD (from UniProt P07339), GAPDH (from UniProt P04406 1-335), B1, B2, B3

These are yes or no findings as the source states them, for the method shown. In cells and extracts the contact can be indirect. Here binding means that the protein was enriched with, or labelled near, the bait; the list need not be complete. Tags and fused reporters may be left off the sequences shown.
